Results deposited as PubChem BioAssay AID1259425 (University of Nebraska Medical Center, 2018)

Purpose: 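Compare each knockdown with KSR1 silencing using changes in marker transcripts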 (primary screen)
System: HCT116 human colon cancer cells
Knock-down reagent: siRNA pool against human genes, 50 nM siRNA
Measured: 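mRNA of six signature genes measured together by branched-DNA assay after 50 nM siRNA pool, blank removed, divided by geometric mean of two housekeeping genes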
Reading the numbers: BNIP3L mRNA: higher = more BNIP3L transcript after knockdown; NDRG1 mRNA: higher = more NDRG1 transcript after knockdown
This is one part, drawn at random, of about 14,000 reagents tested. Some reagents were tested in more than one well and are listed for each. Further read-outs or replicates are left out here. Not given: the time to read-out.

target | BNIP3L mRNA, set 1 | NDRG1 mRNA, set 1
TNFRSF10C (TNF receptor superfamily member 10c) | 0.0955 | 0.129
ACTR3B (actin related protein 3B) | 0.0845 | 0.107
MAEL (maelstrom spermatogenic transposon silencer) | 0.123 | 0.125
FAH (fumarylacetoacetate hydrolase) | 0.289 | 0.301
ASCL3 (achaete-scute family bHLH transcription factor 3) | 0.202 | 0.439
TTC23 (tetratricopeptide repeat domain 23) | 0.0834 | 0.442
RAB36 (RAB36, member RAS oncogene family) | 0.0668 | 0.126
ZNF85 (zinc finger protein 85) | 0.0694 | 0.102
DHFRP3 (dihydrofolate reductase pseudogene 3) | 0.102 | 0.204
ADCY9 (adenylate cyclase 9) | 0.0534 | 0.2
SETD6 (SET domain containing 6, protein lysine methyltransferase) | 0.0672 | 0.323
SLCO1C1 | 1.16 | 2.78
TNFSF18 (TNF superfamily member 18) | 0.0595 | 0.294
RAX (retina and anterior neural fold homeobox) | 0.0637 | 0.222
RAX (retina and anterior neural fold homeobox) | 0.0787 | 0.0722
DPH5 (diphthamide biosynthesis 5) | 0.0871 | 0.328
NOB1 (NIN1 (RPN12) binding protein 1 homolog) | 0.264 | 0.183
GCC2-AS1 (GCC2 antisense RNA 1) | 0.211 | 0.0893
RNF220 (ring finger protein 220) | 0.0602 | 0.0271
MLLT1 (MLLT1 super elongation complex subunit) | 0.133 | 0.18
RIMS2 (regulating synaptic membrane exocytosis 2) | 0.347 | 0.117
GMPR (guanosine monophosphate reductase) | 0.0605 | 0.117
CRTAM (cytotoxic and regulatory T cell molecule) | 0.134 | 0.182
NID2 (nidogen 2) | 0.0623 | 0.11
EFS (embryonal Fyn-associated substrate) | 0.0588 | 0.05
LMBR1 (limb development membrane protein 1) | 0.142 | 0.123
ASB2 (ankyrin repeat and SOCS box containing 2) | 0.0682 | 0.113
NKTR (natural killer cell triggering receptor) | 0.181 | 0.129
STAG1 (STAG1 cohesin complex component) | 0.0705 | 0.172
SIAH2 (siah E3 ubiquitin protein ligase 2) | 0.0837 | 0.0636
DGKA (diacylglycerol kinase alpha) | 0.197 | 0.208
TXN (thioredoxin) | 0.05 | 0.222
ACOT11 (acyl-CoA thioesterase 11) | 0.182 | 0.245
PROS1 (protein S) | 0.0725 | 0.289
